“Also recorded” adds a separate entry of the source. At least one compound was matched to its structure with a doubt left.
Tested on: healthy human skin transplanted onto beige-SCID mice
Assay: Humanized psoriasis model, human skin xenografts on beige-SCID mice
Assay type: in vivo, mouse
Description: In this model, psoriasis is induced in xenotransplants of healthy human skin transplanted onto beige severe combined immunodeficiency (SCID) mice followed by intradermal (i.d.) injection of IL-2 enriched Peripheral Blood Mononuclear Cells (PBMCs) isolated from blood of psoriasis patients (Nickoloff, 1995; Wrone-Smith, 1996 Gilhar et al., 2002, 2006, 2011). The activity of these compounds was compared to that of Enbrel, a TNF inhibitor which is an approved biological drug for treatment of psoriasis. […]
F) Twenty eight days after starting the injections and treatment, skin was harvested (FIG. 20). Grafts were analyzed for the following psoriatic parameters by histology: epidermal thickening (acanthosis), suprapapillary epidermal thinning (papillomatosis), hyperkeratosis, parakeratosis, orthokeratosis, agranulosis-hypogranulosis, appearance of neutrophils in the upper spinous layer or in the corneal cell layer—Munro microabscess, regular elongation of rete ridges, angiogenesis, edema and dilated tortuous blood vessels in the dermal papilla and mononuclear cell infiltrate in the papillary dermis. Epidermal thickness was measured as detailed below, and HLA-DR, ICAM-1, Ki-67 and immune infiltrates (anti-CD3 stain) were evaluated by immunohistochemistry (IHC). […]

C[C@@H]1C[C@H]2[C@@H]3CCC4=CC(=O)C=C[C@]4(C)[C@@]3(F)[C@@H](O)C[C@]2(C)[C@@]1(O)C(=O)CO [dexamethasone]
infiltration of T cells (CD3 positive cells) (IHC, vs PBS): significant reduction | epidermal thickness (vs vehicle treated group): significant reduction; also recorded: significantly reduced

Reference: US20190309044A1, “POLYPEPTIDES AND USES THEREOF AS A DRUG FOR TREATMENT OF AUTOIMMUNE DISORDERS” (Compugen Ltd., priority 2017, published 2019)
